# Primary screen of a compound library

Amino acid sequences for entries named in this document (tags omitted).
UniProt E9BF75, entry or part of it: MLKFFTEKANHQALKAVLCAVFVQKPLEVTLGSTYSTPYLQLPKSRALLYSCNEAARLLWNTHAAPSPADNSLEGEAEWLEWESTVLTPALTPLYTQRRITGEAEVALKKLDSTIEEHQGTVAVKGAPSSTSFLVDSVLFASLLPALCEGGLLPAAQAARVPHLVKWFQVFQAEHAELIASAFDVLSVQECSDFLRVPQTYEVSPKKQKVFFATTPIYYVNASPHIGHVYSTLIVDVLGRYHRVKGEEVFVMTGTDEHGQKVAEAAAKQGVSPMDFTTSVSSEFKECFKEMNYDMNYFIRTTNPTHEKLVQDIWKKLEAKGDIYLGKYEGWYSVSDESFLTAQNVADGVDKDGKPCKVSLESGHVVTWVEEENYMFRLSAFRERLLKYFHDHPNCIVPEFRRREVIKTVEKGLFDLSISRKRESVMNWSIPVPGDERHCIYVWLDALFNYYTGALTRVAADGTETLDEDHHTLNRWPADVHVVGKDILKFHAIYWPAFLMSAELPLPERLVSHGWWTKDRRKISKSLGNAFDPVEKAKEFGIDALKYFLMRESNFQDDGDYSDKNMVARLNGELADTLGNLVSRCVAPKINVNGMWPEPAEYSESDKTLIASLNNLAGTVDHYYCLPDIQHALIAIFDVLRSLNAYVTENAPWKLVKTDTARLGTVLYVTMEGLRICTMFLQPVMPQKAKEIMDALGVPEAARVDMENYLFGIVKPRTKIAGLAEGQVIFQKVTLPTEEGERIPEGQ

From ChEMBL document CHEMBL3988442, “University of Dundee, Small-Polar-MMV Screening Library” (2021).

LdMetRS: 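Methionyl-tRNA synthetase (putative), Leishmania donovani (UniProt E9BF75). Primary screen of methionyl-tRNA synthetase; the read-out is not stated. The test concentration is not given. The values are filed as inhibition. About 68,000 compounds were tested under these conditions; 0.035% (about 24) showed 50% or more at least once.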
Mtb heat-shock: 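Assay on Mycobacterium tuberculosis, filed only as a heat shock assay from Cornell; the read-out is not stated. The concentration is filed as 10 mM, unlikely as a test dose, so the dose is not known. The record gives no direction; compounds that gave an IC50 in retests scored well above the rest, so higher reads as stronger inhibition. About 69,000 compounds were tested under these conditions; 1.4% (about 930) showed 50% or more at least once.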

Results are percentages, as filed.
How 0% and 100% were set is not recorded. Most values in the screen are low, and negative values occur.
The compounds are a random part of those screened.
A dash means the value is not listed here; it may have been measured.

SMILES	LdMetRS	Mtb heat-shock
Cn1cc(C(=O)Nc2ccc(CC(=O)NC3CC3)cc2)nn1	9.42%	10.45%
Cc1cccc(CN2CCC3(CCC(CC(=O)N(C)C)CC3)CC2)n1	14.01%	-
O=C(c1cnc2n1CCN(Cc1ccccc1)C2)N1CCCC1	14.93%	-
c1cncc(CN2CC[C@@H]3[C@@H]2CCN3Cc2ccc3c(c2)OCO3)c1	1.667%	-
CCOc1cc(CN[C@@H]2COC[C@H]2Cc2cc(C)no2)ccc1O.O=C(O)CC(O)(CC(=O)O)C(=O)O	-	-17.97%
COCc1cnc2n1CCN(C1CCC1)C2C (stereo not shown)	8.143%	-
Cc1ccc2c(c1)c(CNC(=O)C1CCN(CC(N)=O)CC1)nn2C	0.7792%	6.121%
[H][C@@]12CCN(C[C@@H]1CN1CCOCC1)[C@@H](CNS(=O)(=O)c1ccccc1)C2	-	-30.02%
COC(=O)c1cccc(NCC(=O)NC(N)=O)c1	-0.8065%	-25.11%
CC(C)(C(=O)N[C@@H]1CCC[C@@H](O)[C@@H]1O)c1cccc(F)c1	11.63%	3.908%
CCc1nn(C)c(Cl)c1CN1CCN(c2ccc(Cl)nn2)CC1	3.621%	-24.1%
O=C(O)c1ccccc1-c1ccc(CN2CCCC(O)C2)cc1 (stereo not shown)	3.155%	-8.246%
CCOc1ccc2c(c1)C=C(C(=O)NC(C)Cn1cccn1)CO2 (stereo not shown)	9.091%	-7.96%
Cc1nc(O)cc(CCNc2nccc(CCC(F)(F)F)n2)n1	6.164%	-18.25%
CCOc1cc(CN(C)CCOC)ccc1OC(F)F	3.937%	-6.052%
O=C1CC2(CCCCN2C(=O)Cc2ccccc2)CN1c1cccnc1 (stereo not shown)	8.143%	-
CS(=O)(=O)N1CCc2c(nnn2CC2CC2)C1COCC1CC1 (stereo not shown)	12.8%	-0.2584%
Cc1c(S(=O)(=O)NCC(C)Cn2cc(Cl)cn2)cnn1C (stereo not shown)	3.683%	4.749%
Cc1nccn1-c1ccc(C(C)NCCc2ccccn2)cc1 (stereo not shown)	7.88%	1.256%
O=C(Cn1nc2c(cc1=O)CCCC2)NC(C(=O)O)c1ccccc1 (stereo not shown)	10.86%	2.346%
Cc1ccc(NC(=O)CN[C@H](C(N)=O)C(C)C)cc1F	0.9063%	-170.6%
CC(Cc1ccsc1)NC(=O)c1cc(N2CCNC2=O)ccc1F (stereo not shown)	8.042%	-1.882%
CN(C)C1Cc2ccccc2N(S(=O)(=O)c2ccccc2C#N)C1 (stereo not shown)	1.003%	-17.59%
CCc1csc(C2CCCN(C(=O)c3ncccn3)C2)n1 (stereo not shown)	11.68%	0.5854%
O=C(O)C(F)(F)F.O=C1COC2(CCN(c3ccccn3)CC2)CN1	-	64.38%
COc1ccc(-c2nc(C3(NC(=O)OC(C)(C)C)CCC3)no2)cn1	8.564%	-4.135%
O=C(N1CCCO1)[C@@]12CCO[C@@H]1CCN(Cc1ccccn1)C2	8.493%	-
O=C(O)CCC(=O)Nc1nn(Cc2ccc(F)cc2)cc1Cl	2.611%	-3.391%
Cc1cccc2cc(C(=O)N3CCC(F)(F)CC3)n(C)c12	-	-57.56%
O=C(O)C(F)(F)F.O=C(c1cscn1)N1CCc2ncnc(-c3cccnc3)c2CC1	-	-9.91%
Cn1c(N2CCOCC2)nc2cc(C(=O)N3CCC(O)(CO)C3)ccc21 (stereo not shown)	9.915%	3.483%
CCC(=O)N1CCC2(COCc3cnc(N4CCOCC4)nc32)C1 (stereo not shown)	9.453%	-0.8045%
CN1CCN(Cn2nc(-c3cccs3)ccc2=O)CC1	8.788%	6.699%
N#Cc1ccnc(N2CCN(CC(O)c3ccc(F)c(F)c3)CC2)c1 (stereo not shown)	19.1%	-8%
Cc1ncsc1C(=O)NC1CCN(CC(=O)N(C)c2ccccc2)CC1	18.9%	-42.02%
CS(=O)(=O)c1cccc(C(=O)N2CCCC(n3cccn3)C2)c1 (stereo not shown)	18.2%	13.77%
CC(C)NC(=O)N1CCN(S(=O)(=O)C2CC2)CC2(CC(=O)N(C)C2)C1 (stereo not shown)	18.63%	-4.201%
COCCN1CCO[C@H]2CN(Cc3cc[nH]n3)C[C@H]21	11.73%	-
CC(Cn1cccn1)NC(=O)NCc1ccccn1 (stereo not shown)	6.294%	-5.464%
Cc1nc(COC(=O)c2cccnc2C)no1	19.05%	1.617%
CSCC[C@H](NC(C)=O)c1nc(CCc2ccccc2)n[nH]1	3.249%	-14.88%
CCOc1ccc(Cl)c(C(=O)N2CCN(CCO)CC2)n1	16.6%	-16.35%
COCCn1nc(C(=O)N2CCCC2c2cccc(F)c2)ccc1=O (stereo not shown)	12.68%	5.276%
[H][C@@]12CCCO[C@]1([H])[C@H](N(C)C)CN(c1nnc(C)s1)C2	-	-21.14%
COc1ccc(OCCNC(=O)N2CCS(=O)(=O)CC2)cc1	11.72%	17.25%
O=C(c1cc[nH]n1)N1CCc2ncnc(NCc3ccccn3)c2CC1	18.82%	-1.441%
CCS(=O)(=O)N1C[C@H]2CCC[C@@]2(COc2ccccn2)C1	12.86%	-
Cc1nc(-c2ccccc2C)n(CC(=O)NC(C)C)n1	4.712%	-30.84%
O=C(Nc1cccnn1)NC(CCCO)c1ccccc1 (stereo not shown)	16.06%	18.17%
COCCNS(=O)(=O)c1cccc2c1CN(C(=O)c1cc(C)on1)CC2	3.226%	-38.38%
Cc1[nH]/c(=N/C(=O)Cn2nc(N3CCOCC3)ccc2=O)sc1C	6.971%	-6.271%

4 of the entries, repeated:

Cc1nc(COC(=O)c2cccnc2C)no1 read LdMetRS: 19.05%; Mtb heat-shock: 1.617%.
Cc1nccn1-c1ccc(C(C)NCCc2ccccn2)cc1 (stereo not shown) read LdMetRS: 7.88%; Mtb heat-shock: 1.256%.
CC(Cn1cccn1)NC(=O)NCc1ccccn1 (stereo not shown) read LdMetRS: 6.294%; Mtb heat-shock: -5.464%.
O=C(Cn1nc2c(cc1=O)CCCC2)NC(C(=O)O)c1ccccc1 (stereo not shown) read LdMetRS: 10.86%; Mtb heat-shock: 2.346%.